Measured values from PMC7791131.
Results are given in words; binding and its absence hold for the method and conditions named. In cells and extracts the contact can be indirect. Some binding calls cover weakened binding; strength is not graded here.

Chains of the proteins cited; added tags and fusions are not shown. Residues count along the entry.
UniProt P13500, residues 24-99: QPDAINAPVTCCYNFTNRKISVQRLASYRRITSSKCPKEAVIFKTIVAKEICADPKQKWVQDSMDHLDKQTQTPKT

Molecular target: T1, MEX3A (human (human glioma cell lines; cells of the co-IP not stated)) (UniProt A1L020)
T1 sequence: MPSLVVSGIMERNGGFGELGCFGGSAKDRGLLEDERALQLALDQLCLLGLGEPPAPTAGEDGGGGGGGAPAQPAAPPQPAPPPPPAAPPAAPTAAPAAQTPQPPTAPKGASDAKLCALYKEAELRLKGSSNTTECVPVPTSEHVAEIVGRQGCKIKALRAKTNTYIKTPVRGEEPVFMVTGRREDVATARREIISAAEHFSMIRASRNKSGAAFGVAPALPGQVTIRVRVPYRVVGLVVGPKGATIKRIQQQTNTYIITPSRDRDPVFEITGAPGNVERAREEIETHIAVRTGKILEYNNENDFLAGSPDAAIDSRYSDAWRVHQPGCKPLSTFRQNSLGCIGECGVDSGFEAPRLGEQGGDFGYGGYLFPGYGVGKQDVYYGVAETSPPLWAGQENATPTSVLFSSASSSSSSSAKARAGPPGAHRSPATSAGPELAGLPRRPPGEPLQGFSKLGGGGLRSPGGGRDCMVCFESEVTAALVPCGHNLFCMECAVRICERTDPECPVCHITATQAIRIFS
Assay: co-IP; no details given; cells, the precipitated protein and the antibodies are not stated

- binding: binds
Substance: CCL2 (from UniProt P13500 24-99)
